Measured values: paper PMC10632425
Residue numbers refer to the chain shown, from its start. In names and notes the source's numbering stands. Results are given in words; binding and its absence hold for the method and conditions named. Some entries that bind do so weakly or less than the wild type.

What was measured:
[1] = molecular target: T1, BmrC subunit of BmrCD*-QQ (D500Q) (Bacillus subtilis) (UniProt O07550); assay: cryo-EM structure; BmrCD heterodimer (~3 mg/ml) in lipid nanodiscs (MSP1D1 or MSP1D1E3; PC/PA or PC/E. coli polar lipids); BmrCD*-QQ with 10 mM ATP, 5 mM MgCl2, with or without 1.2 mM Hoechst-33342; wild type with 10 mM ATP, 4 mM MgSO4, 4 mM vanadate at 37 °C; both purified
T1 sequence: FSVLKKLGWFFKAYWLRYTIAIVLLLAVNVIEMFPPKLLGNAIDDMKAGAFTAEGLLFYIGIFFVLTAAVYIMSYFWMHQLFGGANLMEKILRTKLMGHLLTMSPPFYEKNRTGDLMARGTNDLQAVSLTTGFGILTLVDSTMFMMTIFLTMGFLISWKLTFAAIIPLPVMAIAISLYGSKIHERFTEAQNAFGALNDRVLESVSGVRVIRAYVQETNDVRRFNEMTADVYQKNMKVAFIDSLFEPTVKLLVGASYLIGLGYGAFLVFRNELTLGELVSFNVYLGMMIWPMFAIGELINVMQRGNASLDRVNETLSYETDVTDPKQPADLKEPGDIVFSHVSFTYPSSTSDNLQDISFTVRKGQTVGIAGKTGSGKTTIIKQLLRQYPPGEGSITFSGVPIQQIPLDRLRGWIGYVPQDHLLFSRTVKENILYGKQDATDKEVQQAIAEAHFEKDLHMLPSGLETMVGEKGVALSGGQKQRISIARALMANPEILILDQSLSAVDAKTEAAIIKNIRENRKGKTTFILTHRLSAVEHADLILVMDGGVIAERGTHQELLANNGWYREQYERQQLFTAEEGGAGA

[2] = molecular target: T2, BmrC subunit of wild type BmrCD (Bacillus subtilis) (UniProt O07550); assay: as above
T2 sequence: T1 sequence with Q499D

B1: BmrD subunit of BmrCD*-QQ (cysteine-less, E592Q) (protein, UniProt O07549 1-673)
chain: MKIGKTLWRYALLYRKLLITAVLLLTVAVGAELTGPFIGKKMIDDHILGIEKTWYEAAEKDKNAVQFHGVSYVREDRLQEPVSKAKEAHIYQVGMAFYFVDQAVSFDGNRTVSDGKLTITNGDKSRAYAAEKLTKQELFQFYQPEIKGMVLLIALYGGLLVFSVFFQYGQHYLLQMSANRIIQKMRQDVFSHIQKMPIRYFDNLPAGKVVARITNDTEAIRDLYVTVLSTFVTSGIYMFGIFTALFLLDVKLAFVALAIVPIIWLWSVIYRRYASYYNQKIRSINSDINAKMNESIQGMTIIQAFRHQKETMREFEELNESHFYFQNRMLNLNSLMSHNLVNVIRNLAFVALIWHFGGASLNAAGIVSIGVLYAFVDYLNRLFQPITGIVNQFSKLELARVSAGRVFELLEEKNTEEAGEPAKERALGRVEFRDVSFAYQEGEEVLKHISFTAQKGETVALVGHTGSGKSSILNLLFRFYDAQKGDVLIDGKSIYNMSRQELRSHMGIVLQDPYLFSGTIGSNVSLDDERMTEEEIKNALRQVGAEPLLKKLPKGINEPVIEKGSTLSSGERQLISFARALAFDPAILILDQATAHIDTETEAVIQKALDVVKQGRTTFVIAHRLSTIRNADQILVLDKGEIVERGNHEELMALEGQYYQMYELQKGQKHSIA
binding [1]: binds

B2: BmrD subunit of wild type BmrCD (protein, UniProt O07549 1-673)
chain: B1 chain with A154C, A256C, A351C, Q592E
binding [2]: binds
